Data on 39 compounds can be found in PubChem BioAssay AID2685 (National Center for Advancing Translational Sciences (NCATS), 2010).

Molecules are shown by their SMILES. This is one part of the list. Further columns of the screen follow, without active or inactive calls. Compounds called inactive in the main read-out are mostly missing here. Potencies come from curve fits of mixed quality, noted in brackets.

The experiment can be described thus: qHTS Assay for Lipid Storage Modulators in Drosophila S3 Cells.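 On cell number change: cells counted by Cell Tracker Red CMTPX staining in the red channel.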 The settings on record: BODIPY lipid droplet fluorescence, 18-24 h; for cell number change: measured here: cell count max response, cells fed with added oleic acid. The method in brief: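 Laser-scanning cytometry quantifies lipid droplet accumulation (500–530 nm total intensity; droplet/cell object ratio) in oleic acid-fed (400 uM added) Drosophila S3 cells treated with a concentration series. 20 uM Triacsin C defined 100% inhibition.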
On the technique in general: Quantitative high-throughput screening tests each substance at several concentrations.

Setting [1] is: measured here: lipid fluorescence (Fed channel) AC50, cells fed with added oleic acid.
The mark [2] stands for this setting: measured here: cell number channel AC50, cells fed with added oleic acid.

Regarding `O=c1c2cc(Br)ccc2nc(-c2cccc(Cl)c2)n1O`, the cell number change is -28.7%. Besides, under setting [1], the AC50 is 32.6 µM [falling, single point]. For `CC1(C)CC(=O)C2=C(C1)NC(SCC(=O)Nc1ccccc1)=C(C#N)C2c1ccco1` (stereo not drawn), the cell number change is -19.1%. Further, under setting [1], the AC50 was 0.58 µM [rising, partial curve]. Consider `Cc1cc(=O)oc2c3c(cc(OCC(=O)NC(C)C)c12)OC(C)(C)CC3`, for which the cell number change was 7.83%. Besides, under setting [1], the AC50 is 0.13 µM [falling, full curve, poor fit]. As to `CCOC(=O)C1=C(C)NC(C)=C(C(=O)OCC)C1C(=O)OCC(=O)N(C)C1CCS(=O)(=O)C1` (stereo not drawn), the cell number change was -27.5%. Turning to `Cc1cccc2c1cnn2C(=O)Nc1ccc(Br)cc1F`, the cell number change stood at 48.6%. For the same compound, the concentration at half-maximal activity (AC50) under setting [2] is 2.91 µM [rising, partial curve]. Further, the AC50 under setting [1] was 29.1 µM [rising, single point]. Take `COc1ccc(Nc2cc3n(c(=O)n2)CCc2cc(OC)c(OC)cc2-3)c(C)c1`: the cell number change was -1.39%. The AC50 under setting [1] was 3.66 µM [rising, partial curve].

`O=C1CCc2cc(S(=O)(=O)NC(Cc3ccccc3)C(=O)NCC3CCCO3)ccc2N1` (stereo not drawn): the cell number change was 11%. In addition, the AC50 under setting [1] was 9.2 µM [rising, partial curve, poor fit]. Take `Cc1cccc(NS(=O)(=O)c2ccc(C)c(C(=O)N(C)C3CCN(C)CC3)c2)c1`: the AC50 under setting [1] was 8.2 µM [rising, partial curve].

Regarding `COc1ccc(NC(=O)c2sccc2SCC#N)cc1`, under setting [2], the AC50 is 1.3 µM [rising, partial curve]. As for `COc1cc(NC(=O)CN2C(=O)NC(C)(CCC(C)C)C2=O)cc(OC)c1` (stereo not drawn), the cell number change is 44.9%. Further, the AC50 under setting [2] is 16.4 µM [rising, partial curve].

Regarding `O=C(O)COc1ccc(Br)cc1/C=N\Nc1ccccn1`, the cell number change is -8.77%. Further, the AC50 under setting [2] was 2.31 µM [falling, single point]. In the case of `CCCCOC(=O)c1ccc(NC(=O)/C=C/c2cccs2)cc1`, the cell number change is -17.6%.

Consider `Clc1ccc(OCc2nn[nH]n2)cc1`, for which the cell number change worked out at 19.6%. The AC50 under setting [1] is 2.91 µM [falling, single point].

Consider `COc1ccc(-c2[nH]ncc2CN(C)Cc2cccnc2)c(OC)c1`, for which the cell number change came out at 21.6%. Besides, the AC50 under setting [1] is 3.26 µM [rising, partial curve]. With `CCOC(=O)N1CCN(S(=O)(=O)c2ccc(OC)c3ccccc23)CC1`, the cell number change was -38.1%. Moreover, under setting [2], the AC50 is 29.1 µM [falling, single point]. In the case of `CC(=O)NC1CCCc2c1cnn2-c1ccc(C(C)(C)C)cc1` (stereo not drawn), the cell number change was -48.6%. The AC50 under setting [2] is 13 µM [falling, partial curve]. For `COC(=O)[C@H](Cc1ccccc1)NC(=O)NCc1ccc(S(N)(=O)=O)cc1`, the cell number change worked out at 0.934%. On to `Cc1cc(CNC(=O)Cc2c(F)cccc2Cl)nn1C`, for which the cell number change amounted to 8.89%. Further, the AC50 under setting [1] was 6.51 µM [falling, single point]. `Cc1ccc(S(=O)(=O)N(C)C)cc1NC(=O)C(C)OC(=O)c1ccc2ccccc2n1` (stereo not drawn): the cell number change worked out at 10.7%. In addition, the AC50 under setting [1] is 6.51 µM [rising, single point]. Take `c1ccc(-c2nn3c(-c4ccco4)nnc3s2)nc1`: the cell number change is 7.95%. Besides, the concentration at half-maximal activity (AC50) under setting [1] was 6.51 µM [falling, single point]. On to `COc1cc(C)c(NC(=S)Nc2ccc(C)c(Cl)c2)cc1OC`, for which the cell number change amounted to 21.9%. Besides, the concentration at half-maximal activity (AC50) under setting [1] is 14.6 µM [rising, single point]. With `CCOc1ccc(S(=O)(=O)NNC(=O)c2cc3ccccc3o2)cc1`, the cell number change is -18.7%. In addition, under setting [1], the AC50 was 3.66 µM [falling, single point].

As for `CN1CCN(c2ccc(NC(=S)NC(=O)/C=C/c3ccco3)cc2)CC1`, the cell number change amounted to 5.24%.

Regarding `COc1ccc(C(=O)Nc2ccc(Cl)cc2C(=O)NCCO)cc1`, the cell number change is -15%. Moreover, under setting [1], the AC50 is 11.6 µM [rising, partial curve]. Turning to `CSc1ccc(OCC(=O)Nc2ccc(N3CCOCC3)c(Cl)c2)cc1`, the cell number change was -20.4%. The AC50 under setting [1] is 29.1 µM [falling, single point]. On to `C=CCN=C1N[C@@H](c2ccc(Br)cc2)C(C(=O)OC)=C(C)N1Cc1ccccc1`, for which the cell number change was found to be 3.06%. In addition, the AC50 under setting [1] is 0.259 µM [falling, full curve, poor fit]. Consider `COc1ccc2sc(NC(=O)NC(=O)c3c(Cl)cccc3Cl)nc2c1`, for which the cell number change was -5.06%. The AC50 under setting [1] is 0.00461 µM [falling, full curve, poor fit]. `CCC(C(=O)OCC(=O)Nc1c(C)n(C)n(-c2ccccc2)c1=O)c1ccccc1` (stereo not drawn): the cell number change was -129%. The AC50 under setting [1] is 0.164 µM [falling, full curve, poor fit].

As for `CCOC(=O)c1ccc(N2CCCCC2)c(NS(=O)(=O)c2cccc(C(F)(F)F)c2)c1`, the cell number change was 11.4%. Besides, the AC50 under setting [1] is 14.6 µM [rising, partial curve, poor fit].

For `CCN1C(=O)C2(C(C#N)=C(N)Oc3c2c(C)nn3-c2ccccc2)c2ccccc21` (stereo not drawn), the cell number change was found to be 4.23%. For the same compound, the half-maximal activity concentration (AC50) under setting [1] is 2.31 µM [rising, partial curve]. For `COc1cc(C(=O)NCC(=O)NC(C)c2ccc(-n3ccnc3)cc2)cc(OC)c1OC` (stereo not drawn), the cell number change is -13.8%. As to `CCN(Cc1ccccc1)C(=O)c1ccc(C(=O)N(CC)Cc2ccccc2)cc1`, the cell number change is -30.1%. Moreover, the AC50 under setting [2] was 13 µM [falling, single point]. As for `O=C(CNC(c1ccccc1)c1ccccc1)Nc1ccccc1F`, the cell number change was -2.56%. Further, the AC50 under setting [1] is 0.116 µM [rising, single point]. Regarding `COC(=O)c1c(-c2ccc(OC)cc2)oc2ccccc12`, the cell number change was determined as 18.1%. With `CCc1nc2sc(C(C)=O)c(N)c2c2c1CCCC2`, the cell number change was 13.2%. The AC50 under setting [2] is 6.51 µM [rising, single point]. Besides, under setting [1], the AC50 is 2.59 µM [rising, partial curve, poor fit]. For `O=C(Nc1nc2c(s1)CN(Cc1ccccc1)CC2)c1cccc(S(=O)(=O)N2CCc3ccccc32)c1`, the cell number change was -77%. Moreover, the AC50 under setting [2] was 2.91 µM [falling, partial curve]. For the same compound, under setting [1], the AC50 was 0.731 µM [falling, full curve]. Turning to `Nc1nn(S(=O)(=O)c2ccccc2)cc1-c1ccc([N+](=O)[O-])cc1`, the cell number change worked out at 32.3%. Besides, under setting [2], the AC50 is 3.26 µM [rising, partial curve]. The AC50 under setting [1] was 1.46 µM [rising, single point].

Consider `Cc1cc([N+](=O)[O-])nn1Cc1ccc(C(=O)N/N=C/c2ccc(N(C)C)cc2)cc1`, for which the AC50 under setting [1] is 0.58 µM [rising, full curve, poor fit]. Take `CCCNC(=O)CCc1c(C)nc2c(c(C)nn2-c2ccc(C)cc2)c1C`: the cell number change is -4.84%. Under setting [1], the AC50 was 1.3 µM [rising, full curve].

By AC50 is commonly meant the concentration at which the activity in the assay is half-maximal. The low end stands for activity at low concentration, the high end for activity only at high concentration.
